# PubChem BioAssay AID504409 (Broad Institute, 2011)
# The inconclusive results got no clear call from the source; some entries with a clear call stand among them for comparison. Activity calls are given as the source filed them.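 Rule for the calls: active = fitted curve reaches caspase activation of 10% of the positive control signal in every replicate test; inconclusive = tests disagree, or a test had a flat mid-level or poor fit; inactive = every replicate test called inactive.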
# Test: apoptosis induction in A1/BIM co-expressing fibroblasts – cell-based, Flag-A1-IRES-BIM MEF, luminescence, dry powder, set 3, orthogonal assay for A1 inhibitor project, dose response (AID 504409)
# Conditions: caspase-Glo luminescence, 3 h; at 35 µM (top of the series)
# Summary of the method: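 System: mouse embryonic fibroblasts primed with alternate Flag-A1-IRES-BIM construct. Medium: RPMI-1640, 10% heat-inactivated FBS. Doses: 100 nL pinned compound per well. Timing: 3 h exposure (37 °C, 5% CO2), 1 h room-temperature detection. Detection: CaspaseGlo luminescence. Read-out basis: caspase activation level from luminescent signal.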
row,SMILES,caspase activation
1,Cc1ccc(Sc2c(Sc3ccc(C)cc3)c3ccccc3n(C)c2=O)cc1,inactive: -0.308%
2,C/C(=N\Nc1nc(N2CCCCC2)nc(N2CCCCC2)n1)c1ccc(F)cc1,inactive: 0.551%
3,O=c1c([N+](=O)[O-])c(Cl)c2ccccc2n1Cc1ccccc1,inconclusive: -3.56%
4,Cc1ccc(Sc2c([N+](=O)[O-])c(=O)n(Cc3ccccc3)c3ccccc23)cc1,inconclusive: 15.1%
5,COc1nc2ccccc2c(Cl)c1[N+](=O)[O-],inconclusive: 17.6%
6,Cc1ccc(Sc2c([N+](=O)[O-])c(=O)n(C)c3ccccc23)cc1,inconclusive: 39.7%
